Assay results: patent publication US20160046678A1 (ZYNGENIA, published 2016)
No constants are given. Whether binding was seen depends on the method and setting. Some binding calls cover weakened binding; strength is not graded here.

Chains of the proteins cited; added tags and fusions are not shown. Residues count along the entry.
UniProt P05231, residues 30-212: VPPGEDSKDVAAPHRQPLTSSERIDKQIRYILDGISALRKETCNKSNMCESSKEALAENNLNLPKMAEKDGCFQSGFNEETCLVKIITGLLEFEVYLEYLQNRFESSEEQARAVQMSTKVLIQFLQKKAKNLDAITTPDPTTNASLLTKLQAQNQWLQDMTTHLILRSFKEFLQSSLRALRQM

T1: Angiopoietin-2 (Ang2) (human, UniProt O15123 19-496, biotin label in Examples 22-24)
T1 construct: also called rhAng2; recombinant Ang2
T1 sequence (looked up): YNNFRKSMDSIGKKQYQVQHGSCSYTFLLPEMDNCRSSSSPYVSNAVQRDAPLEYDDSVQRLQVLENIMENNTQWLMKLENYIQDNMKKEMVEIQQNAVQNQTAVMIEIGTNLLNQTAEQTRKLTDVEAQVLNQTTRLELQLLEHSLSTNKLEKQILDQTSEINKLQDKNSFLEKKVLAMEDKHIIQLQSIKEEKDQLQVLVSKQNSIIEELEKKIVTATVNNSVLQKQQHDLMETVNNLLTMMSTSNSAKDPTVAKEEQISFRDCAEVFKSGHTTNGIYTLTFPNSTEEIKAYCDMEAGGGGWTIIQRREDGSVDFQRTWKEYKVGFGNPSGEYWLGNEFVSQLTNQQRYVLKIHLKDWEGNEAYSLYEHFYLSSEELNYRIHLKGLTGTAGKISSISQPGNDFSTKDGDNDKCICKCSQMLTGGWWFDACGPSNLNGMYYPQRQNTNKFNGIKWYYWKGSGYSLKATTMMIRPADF

B1: ILB895 (peptide)
peptide: FNEDCMWDPLLMDCAYSPGQGSATGGSGSTASAAGGSMSLECESYGIGWCSLLH
B2: ILB904 (peptide)
peptide: FNEDCMWDPLLMDCAYSPGQGSATGGSAAGGSGVTGCSGFPTTGTCSQHEQG
B3: ILB901 (peptide)
peptide: FNEDCMWDPLLMDCAYSPGQGSATGGSAAGGSLRQSCYPIPESEKCSFSNQG

These binders were tested against IL6 (UniProt P05231) (assay: MRD identification, Example 48).

binding | Binder
binds | FNEDCMWDPLLMDCAYSPGQGSATGGSAAGGGSWGYQQSWVQQ [ILB884]
binds | FNEDCMWDPLLMDCAYSPGQGSAAGGSNIDFQCYPFKCGVLFSQG [ILB898]
binds | FNEDCMWDPLLMDCAYSPGQGSAAGGGSPWLDPQWDIW [ILB882]
binds | FNEDCMWDPLLMDCAYSPGQGSAAGGGSNCLIAEWECE [ILB893]
binds | FNEDCMWDPLLMDCAYSPGQGSAAGGGSQCKAYMPQCA [ILB886]
binds | FNEDCMWDPLLMDCAYSPGQGSAAGGGSWEVPRSLWGQGQAGPGGGSG [ILB894]
binds | FNEDCMWDPLLMDCAYSPGQGSATGGSGSTASAAGGGSPCQNQPSYQVCT [ILB900]
binds | FNEDCMWDPLLMDCAYSPGQGSAAGGSMQTSCEFHEKYERHGCQQLSQG [ILB892]
binds | FNEDCMWDPLLMDCAYSPGQGSAAGGGSWWSPAYGWQN [ILB907]
binds | FNEDCMWDPLLMDCAYSPGQGSAAGGGSQCALKSFTVPCN [ILB908]
binds | FNEDCMWDPLLMDCAYSPGQGSATGGSAAGGGSTREMLVHPRH [ILB888]
binds | FNEDCMWDPLLMDCAYSPGQGSAAGGGSVSSYNPWIIY [ILB891]
binds | FNEDCMWDPLLMDCAYSPGQGSAAGGGSFFHWPTKAKE [ILB902]
binds | B1
binds | FNEDCMWDPLLMDCAYSPAGGSRNSWICMEWHCSDLTR [ILB883]
binds | FNEDCMWDPLLMDCAYSPGQGSATGGSAAGGGSSGWEHSSIVF [ILB906]
binds | B2
binds | FNEDCMWDPLLMDCAYSPGQGSATGGSAAGGGSLDYHDIPRHA [ILB905]
binds | FNEDCMWDPLLMDCAYSPGQGSAAGGSHISTCKLIMGAYAHCQTPSQG [ILB896]
binds | FNEDCMWDPLLMDCAYSPGQGSATGGSAAGGGSQCEFEQEECW [ILB903]
binds | FNEDCMWDPLLMDCAYSPGQGSAAGGGSFNINNIYVGN [ILB890]
binds | FNEDCMWDPLLMDCAYSPGQGSAAGGGSLQQGRRHHMR [ILB897]
binds | FNEDCMWDPLLMDCAYSPGQGSATGGSAAGGSLTVSNCQEEICMQDEYQG [ILB885]
binds | FNEDCMWDPLLMDCAYSPGQGSATGGSGSTASAAGGGSQQKERISPWP [ILB889]
binds | FNEDCMWDPLLMDCAYSPGQGSATGGSGSTASAAGGGSLCFSNWDEMKCF [ILB880]
binds | FNEDCMWDPLLMDCAYSPGQGSAAGGGSGCSSTPFAWSCS [ILB899]
binds | FNEDCMWDPLLMDCAYSPAGGGSSWQRHDGHQI [ILB887]
binds | FNEDCMWDPLLMDCAYSPGQGSATGGSAAGGGSICNWEEVDPHCA [ILB881]
binds | B3

What follows are binders tested against T1, Angiopoietin-2 (Ang2) (assay: Example 48, method not detailed).

binding | Binder
binds | RCYEVWWDCA [ANG26]
binds | PCQYWWVLCP [ANG30]
binds | QCMWMWYQCR [ANG28]
binds | QCEWIWVACDGQAGPAGFCYEHMLMCA [ANG25]
binds | KCPDMWPMCW [ANG24]
binds | ICIYWKDPWCY [ANG37]
binds | ACIPDLFLCM [ANG27]
binds | TCIFNFPACI [ANG18]
binds | LCWNHWWMCE [ANG31]
binds | SACDHPMNNKCG [ANG2 (MRD Ref. No., SEQ ID NO:136)]
binds | SACQSSVCFFVRWRF [ANG10]
binds | FCHEYTPACCW [ANG32]
binds | KCPDMWPQCW [ANG23]
binds | YCWVIAKSCVGQAGQGGGGGGSICRHYVWRCE [ANG40]
binds | KCPDFWPECW [ANG33]
binds | SACHPMAPKSCG [ANG6]
binds | SACHPLIHNRCG [ANG12]
binds | KCPDLWPQCY [ANG38]
binds | KCPDMWPECW [ANG29]
binds | MCPDFGMFIYCI [ANG20]
binds | SACGSYNHPMCG [ANG7]
binds | SACGTFTHPQCG [ANG4]
binds | MCTWQFMVCPGQAGQGGGSGGSYCWEYVYRCD [ANG42]
binds | LCWNHWWMCD [ANG41]
binds | ECYHHWPECM [ANG34]
binds | SACGSYEHPMCG [ANG8]
binds | FCDEYTPAWCW [ANG19]
binds | RCPDMWFPACW [ANG35]
binds | QCQEVISACFGQAGQGGGSGGSQCWLMELVCL [ANG22]
